Assay [1] addresses AHA1-Cub (Arabidopsis thaliana) (UniProt P20649). The assay can be described thus: two-hybrid; mating-based split ubiquitin system (mbSUS) in yeast; SAUR15, AHA1, AHA2 fused to Cub, BRI1 constructs fused to Nub; diploid cells on SD media with 0, 150 or 400 mM Met (so in the source).
Assay [2] deals with T1, AHA2-Cub (Arabidopsis thaliana) (UniProt P19456).
T1 sequence: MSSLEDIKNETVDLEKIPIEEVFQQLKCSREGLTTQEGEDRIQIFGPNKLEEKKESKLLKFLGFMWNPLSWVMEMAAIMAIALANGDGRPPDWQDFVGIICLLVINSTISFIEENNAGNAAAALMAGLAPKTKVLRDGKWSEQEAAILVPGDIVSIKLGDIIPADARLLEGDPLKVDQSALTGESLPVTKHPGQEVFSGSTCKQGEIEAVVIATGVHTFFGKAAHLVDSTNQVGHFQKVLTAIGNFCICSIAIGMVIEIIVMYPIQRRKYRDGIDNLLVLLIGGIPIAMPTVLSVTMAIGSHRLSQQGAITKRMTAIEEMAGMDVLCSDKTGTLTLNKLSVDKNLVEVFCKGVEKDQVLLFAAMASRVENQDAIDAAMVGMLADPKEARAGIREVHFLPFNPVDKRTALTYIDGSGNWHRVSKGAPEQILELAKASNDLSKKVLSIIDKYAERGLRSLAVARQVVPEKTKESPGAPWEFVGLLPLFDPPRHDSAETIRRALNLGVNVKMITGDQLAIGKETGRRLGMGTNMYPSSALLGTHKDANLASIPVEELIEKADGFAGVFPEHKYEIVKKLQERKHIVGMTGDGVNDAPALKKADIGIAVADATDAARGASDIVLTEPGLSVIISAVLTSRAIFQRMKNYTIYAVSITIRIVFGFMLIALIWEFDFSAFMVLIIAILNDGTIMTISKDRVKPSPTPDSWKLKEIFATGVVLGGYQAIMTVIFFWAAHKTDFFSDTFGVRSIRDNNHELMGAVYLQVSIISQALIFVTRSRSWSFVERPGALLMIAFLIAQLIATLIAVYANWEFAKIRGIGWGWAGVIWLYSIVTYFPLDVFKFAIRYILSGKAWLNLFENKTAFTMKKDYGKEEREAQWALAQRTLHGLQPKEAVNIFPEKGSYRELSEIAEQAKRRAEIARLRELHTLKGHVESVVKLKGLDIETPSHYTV
The assay is described as above.

Chains of the proteins cited; added tags and fusions are not shown. Lines headed by an entry give the natural chain unless they say otherwise; changes in a name come on top. Residues count along the entry.
UniProt O22476: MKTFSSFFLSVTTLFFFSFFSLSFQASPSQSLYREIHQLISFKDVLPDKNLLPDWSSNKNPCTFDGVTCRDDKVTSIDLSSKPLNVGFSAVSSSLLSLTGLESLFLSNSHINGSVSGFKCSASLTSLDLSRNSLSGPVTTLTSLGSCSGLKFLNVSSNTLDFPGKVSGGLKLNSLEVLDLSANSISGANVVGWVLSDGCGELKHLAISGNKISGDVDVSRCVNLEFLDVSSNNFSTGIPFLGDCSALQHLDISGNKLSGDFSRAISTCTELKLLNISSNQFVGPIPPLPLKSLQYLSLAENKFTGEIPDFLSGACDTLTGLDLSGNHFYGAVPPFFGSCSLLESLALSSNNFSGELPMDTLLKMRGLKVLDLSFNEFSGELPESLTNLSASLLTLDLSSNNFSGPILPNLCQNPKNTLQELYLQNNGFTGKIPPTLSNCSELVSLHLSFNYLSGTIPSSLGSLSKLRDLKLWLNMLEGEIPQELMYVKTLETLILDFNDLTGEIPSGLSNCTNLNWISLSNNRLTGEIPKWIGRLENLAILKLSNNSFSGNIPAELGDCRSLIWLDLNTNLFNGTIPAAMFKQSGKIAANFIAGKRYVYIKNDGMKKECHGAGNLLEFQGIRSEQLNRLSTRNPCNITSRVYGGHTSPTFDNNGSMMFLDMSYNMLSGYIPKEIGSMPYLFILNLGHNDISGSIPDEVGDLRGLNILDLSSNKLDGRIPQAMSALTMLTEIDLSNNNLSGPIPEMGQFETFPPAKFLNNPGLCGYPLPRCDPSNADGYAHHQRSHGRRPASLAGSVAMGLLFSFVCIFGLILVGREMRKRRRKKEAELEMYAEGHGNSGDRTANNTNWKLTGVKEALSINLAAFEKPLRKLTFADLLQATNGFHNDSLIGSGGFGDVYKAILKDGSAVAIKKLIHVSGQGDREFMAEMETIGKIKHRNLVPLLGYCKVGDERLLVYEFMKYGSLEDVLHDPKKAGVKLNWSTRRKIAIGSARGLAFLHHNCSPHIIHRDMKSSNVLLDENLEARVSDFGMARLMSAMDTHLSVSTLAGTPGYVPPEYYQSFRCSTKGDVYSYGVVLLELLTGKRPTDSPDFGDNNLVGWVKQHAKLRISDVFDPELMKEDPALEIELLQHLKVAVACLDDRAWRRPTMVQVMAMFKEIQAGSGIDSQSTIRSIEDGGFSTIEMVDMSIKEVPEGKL
BRI1-FLAG: residues 24-1196 of O22476

Assay [3] has as its target BRI1-FLAG (Arabidopsis thaliana) (UniProt O22476). The assay is described as follows: co-IP; BRI1-FLAG immunoprecipitated with α-FLAG M2 affinity gel from the solubilized membrane fraction of transgenic Arabidopsis seedlings; blots with α-GFP or α-AHA; seedlings treated with 1 μM BL for 2 h (for BAK1 and AHA also untreated, for AHA also 1 μM BRZ for 18 h; Col-0, saur15-1 and SAUR15-3HA backgrounds).

Assay [4] addresses BRI1-YN (Arabidopsis thaliana) (UniProt O22476). The assay can be described thus: split reporter; BiFC in N. benthamiana leaves; YC and YN fusions co-infiltrated with Agrobacterium GV3101; confocal microscopy 48 h after infiltration.

Results are given in words; binding and its absence hold for the method and conditions named. For some assays here: In cells and extracts the contact can be indirect. Some entries that bind do so weakly or less than the wild type. For some assays here: Tags and fused reporters may be left off the sequences shown.

In the case of “BRI1-FL-Nub (from UniProt O22476 1-1196) (receptor)”, the binding result in assay [1] and in assay [2] was “binds” in each case.

B1: BAK1-GFP (receptor, UniProt Q94F62 26-615)
chain: NAEGDALSALKNSLADPNKVLQSWDATLVTPCTWFHVTCNSDNSVTRVDLGNANLSGQLVMQLGQLPNLQYLELYSNNITGTIPEQLGNLTELVSLDLYLNNLSGPIPSTLGRLKKLRFLRLNNNSLSGEIPRSLTAVLTLQVLDLSNNPLTGDIPVNGSFSLFTPISFANTKLTPLPASPPPPISPTPPSPAGSNRITGAIAGGVAAGAALLFAVPAIALAWWRRKKPQDHFFDVPAEEDPEVHLGQLKRFSLRELQVASDNFSNKNILGRGGFGKVYKGRLADGTLVAVKRLKEERTQGGELQFQTEVEMISMAVHRNLLRLRGFCMTPTERLLVYPYMANGSVASCLRERPESQPPLDWPKRQRIALGSARGLAYLHDHCDPKIIHRDVKAANILLDEEFEAVVGDFGLAKLMDYKDTHVTTAVRGTIGHIAPEYLSTGKSSEKTDVFGYGVMLLELITGQRAFDLARLANDDDVMLLDWVKGLLKEKKLEALVDVDLQGNYKDEEVEQLIQVALLCTQSSPMERPKMSEVVRMLEGDGLAERWEEWQKEEMFRQDFNYPTHHPAVSGWIIGDSTSQIENEYPSGPR
With B1, the binding entry in assay [3] is reported as “binds”.

B2: SAUR15-YC (protein, UniProt Q41220 1-89)
chain: MAFLRSFLGAKQIIRRESSSTPRGFMAVYVGENDQKKKRYVVPVSYLNQPLFQQLLSKSEEEFGYDHPMGGLTIPCHESLFFTVTSQIQ
With B2, the binding entry in assay [4] is reported as “binds”.

B3: SAUR15-GFP (protein, UniProt Q41220 1-89)
chain: MAFLRSFLGAKQIIRRESSSTPRGFMAVYVGENDQKKKRYVVPVSYLNQPLFQQLLSKSEEEFGYDHPMGGLTIPCHESLFFTVTSQIQ
As for B3, in assay [3], the binding result is listed as “binds”.

Source of the values: publication PMC9343009.
